Assay results as given in paper doi:10.1101/720508.
Results are given in words; binding and its absence hold for the method and conditions named. Binding seen in cells or lysates may run through a third protein.

By UniProt entry, the sequences of proteins in these tests, tags left out.
UniProt P47746: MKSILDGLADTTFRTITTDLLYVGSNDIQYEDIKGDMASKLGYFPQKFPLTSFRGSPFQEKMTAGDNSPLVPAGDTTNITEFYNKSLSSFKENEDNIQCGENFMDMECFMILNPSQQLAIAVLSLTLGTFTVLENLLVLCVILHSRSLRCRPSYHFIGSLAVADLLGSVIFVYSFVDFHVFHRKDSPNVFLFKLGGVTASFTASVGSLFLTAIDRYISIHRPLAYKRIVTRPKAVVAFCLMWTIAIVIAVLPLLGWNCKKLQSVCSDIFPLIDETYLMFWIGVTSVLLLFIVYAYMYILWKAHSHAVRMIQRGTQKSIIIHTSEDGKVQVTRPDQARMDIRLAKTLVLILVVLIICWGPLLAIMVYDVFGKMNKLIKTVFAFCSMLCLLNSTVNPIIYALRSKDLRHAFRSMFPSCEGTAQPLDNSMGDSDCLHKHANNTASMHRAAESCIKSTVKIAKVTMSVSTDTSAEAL
UniProt P63094: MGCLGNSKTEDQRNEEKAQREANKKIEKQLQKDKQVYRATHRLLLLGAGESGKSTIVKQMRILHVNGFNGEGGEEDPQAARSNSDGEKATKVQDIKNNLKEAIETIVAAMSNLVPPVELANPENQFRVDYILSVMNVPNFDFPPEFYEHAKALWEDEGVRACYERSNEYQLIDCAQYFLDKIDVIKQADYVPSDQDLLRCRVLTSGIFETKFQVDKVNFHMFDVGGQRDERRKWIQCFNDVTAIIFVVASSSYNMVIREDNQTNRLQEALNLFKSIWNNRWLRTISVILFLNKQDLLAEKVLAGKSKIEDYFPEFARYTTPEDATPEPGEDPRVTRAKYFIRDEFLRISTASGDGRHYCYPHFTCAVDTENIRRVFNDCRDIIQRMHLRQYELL

Target: T1, GPR151 (mouse (endogenous in IPN)) (UniProt Q7TSN6)
T1 sequence: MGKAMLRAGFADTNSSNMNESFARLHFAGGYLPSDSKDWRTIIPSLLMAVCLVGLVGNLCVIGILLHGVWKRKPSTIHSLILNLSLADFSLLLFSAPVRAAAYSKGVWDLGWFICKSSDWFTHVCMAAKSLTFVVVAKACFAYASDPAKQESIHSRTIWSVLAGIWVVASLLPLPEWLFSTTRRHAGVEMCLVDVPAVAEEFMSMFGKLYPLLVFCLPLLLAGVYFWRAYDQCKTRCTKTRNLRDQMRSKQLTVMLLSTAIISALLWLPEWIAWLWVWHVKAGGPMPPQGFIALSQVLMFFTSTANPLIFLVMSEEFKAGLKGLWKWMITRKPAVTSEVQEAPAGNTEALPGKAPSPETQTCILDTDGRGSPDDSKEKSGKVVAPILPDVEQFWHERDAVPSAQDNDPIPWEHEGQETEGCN
Assay: co-IP

Substance | binding
cannabinoid receptor 1 (CB1R) (from UniProt P47746 1-473) | no binding
G-alpha stimulatory subunit (Gαs) (from UniProt P63094 1-394) | no binding
